In patent US20110184148 (published 2011):

What was measured:
[1] = general procedure: Fmoc solid-phase peptide synthesis; Fmoc-CLEAR amide resin; FastMoc method; DCC/HOBt for N-alkyl-Cys; HATU/DIEA for first residue; conditions: whole synthesis
[2] = general procedure: Fmoc solid-phase peptide synthesis; CLEAR Amide resin; FastMoc method; DCC/HOBt for N-alkyl-Cys; HATU/DIEA for first residue; conditions: whole synthesis, scale 0.25 mmol

## Gly-Ser-Lys-11e-Leu-Leu-Thr-Cys(Acm)-Ser-Leu-Thr[(Gal-GlcNAc)-2-GalNAc]-Asp-S er-Ala-Thr-Glu-Val-Thr-Gly-His-Arg-Trp-Leu-Lys-Gly-SCH2CH2COOH
[1]; scale 25 μmol
  isolated yield: 5.5%

## Glu-Val-Thr-Gly-His-Arg-Trp-Leu-Lys-Gly-SCH2CH2COOH
[1]; scale 0.03 mmol
  isolated mass: 0.98 mg
  isolated yield: 33%
[1]; scale 0.05 mmol, run 1
  isolated mass: 0.60 mg
  isolated yield: 17%
[1]; scale 0.05 mmol, run 2
  isolated mass: 0.024 mg
  isolated yield: 1.9%
[1]; scale 0.1 mmol, run 1
  isolated mass: 1.0 mg
  isolated yield: 34%
[1]; scale 0.1 mmol, run 2
  isolated mass: 0.85 mg
  isolated yield: 28%

## Ac-Val-Thr(GalGalNAc)-Ser-Ala-Pro-Asp-Thr-Arg-Pro-Ala-Pro-Gly-Ser-Thr(GalGal NAc)-Ala-Pro-Pro-Ala-His-Gly-SCH2CH2COOH
[2]
  isolated mass: 18.9 mg
[1]; scale 0.25 mmol
  isolated yield: 14%

## Glu-Val-Thr-Gly-His-Arg-Trp-Leu-Lys-Gly-SC6H5
[1]
  isolated mass: 1.0 mg
[1]; scale of the general procedure 0.03-0.25 mmol
  isolated yield: 35%

## Thr-Glu-Val-Thr-Gly-His-Arg-Trp-Leu-Lys-SCH2CH2COOH
[1]; scale 0.03 mmol
  isolated mass: 0.17 mg
  isolated yield: 4.4%

## Trp-Leu-Lys-Gly-Gly-Val-Val-Leu-Lys-Glu-SCH2CH2COOH
[1]; scale 0.03 mmol
  isolated mass: 0.21 mg
  isolated yield: 5.3%

## Gly-Ser-Lys-Ile-Leu-Leu-Thr-Cys(Acm)-Ser-Leu-Asn(GlcNAc2)-Asp-Ser-Ala-Thr-Gl u-Val-Thr-Gly-His-Arg-Trp-Leu-Lys-Gly-SCH2CH2COOH
[1]; scale 0.1 mmol
  isolated yield: 8.2%

## Ala-Thr-Glu-Val-Thr-Gly-His-Arg-Trp-Leu-SCH2CH2COOH
[1]; scale 0.03 mmol
  isolated mass: 0.15 mg
  isolated yield: 7.0%
